Experimental data: PubChem BioAssay AID445 (National Center for Advancing Translational Sciences (NCATS), 2006)
“And” between values parts separate entries of the source, which are not always exact repeats. Equal entries are not always repeated. Some of the results follow. The main result of the screen is listed elsewhere. These columns were measured beside it and carry no call. Most of these compounds were active or inconclusive in the main read-out, so they are no random draw. Potencies come from curve fits of mixed quality, noted in brackets.

Assay: IkB Signaling
Conditions: ABC-DLBCL IkBa-CBG/CBR dual luciferase ratio (green luciferase fused to IkBa over red control in OCI-Ly3 lymphoma cells), 4 h
Method in brief: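 Curves were fitted separately to fusion (green), unfused (red) and ratio luminescence, then classed by r2, magnitude and activity. Cells: OCI-Ly3, 4 h compound plus doxycycline at 37C; 10 uM MG-132 defined full response.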

[1] = measured here: control luc red channel unless noted
[2] = measured here: IkB-luc green channel
[3] = measured here: control luc red channel

COc1ccccc1Nc1nn2c(=O)c3ccc(C(=O)Nc4ccc(F)cc4)cc3nc2s1
AC50 [1]: 39.8 µM [falling, single point]

CCOc1ccc2oc(=O)cc(CN3CCN(C(=O)c4cccc(F)c4)CC3)c2c1
AC50 [1]: 39.8 µM [falling, single point]

CCOC(=O)c1ccc(NC(=O)CCc2c(C)n(CC)c3cc(-c4ccccc4OC)nn3c2=O)cc1
AC50 [1]: 25.1 µM [falling, single point]

CCNC(=O)c1ccccc1NC(=O)c1cccc(S(=O)(=O)N2CCC(C)CC2)c1
AC50 [1]: 15.8 µM [falling, partial curve]

CC(NC(=O)C1CCN(C(=O)N2CCOc3ccc(Cl)cc32)CC1)c1ccccc1 (configuration not stated)
AC50 [1]: 25.1 µM [falling, single point]

COc1ccc(N2CCN(C(=O)c3nn(C)c4c3CS(=O)(=O)c3ccccc3-4)CC2)cc1
AC50 [1]: 12.6 µM [falling, partial curve]

O=C(CCSCc1ccc(Cl)cc1)N1CCN(c2ccccc2F)CC1
AC50 [1]: 31.6 µM [falling, single point]

Cc1ccc(CNC(=O)CCn2ccc3cc(S(=O)(=O)N4CCCC4)ccc32)cc1
AC50 [1]: 31.6 µM [falling, partial curve]

COc1ccccc1NC(=O)CSc1nnc(-c2nonc2NC(C)=O)n1-c1ccccc1
AC50 [1]: 25.1 µM [falling, partial curve]

Cc1nn(-c2ccc(C(=O)O)cc2)c(N)c1-c1ccccc1
AC50 [2]: 1 µM [rising, partial curve]
AC50 [3]: 0.2 µM [falling, full curve]

CCCc1cc(=O)n2[nH]c(-c3ccccc3)cc2n1
AC50 [1]: 10 µM [falling, partial curve]

C=C1C(=O)O[C@@H]2[C@@H]1CC/C(C)=C\CC[C@@]1(C)O[C@H]21
AC50 [2]: 15.8 µM [rising, partial curve]
AC50 [3]: 15.8 µM [falling, partial curve] and 10 µM [falling, partial curve]

O=C1CC(c2ccco2)CC2=C1C(c1ccccc1)n1nc(C(F)(F)F)nc1N2 (configuration not stated)
AC50 [1]: 31.6 µM [falling, single point]

CCOCCCNC(=O)c1cc2c(=O)n3ccccc3nc2s1
AC50 [1]: 1.26 µM [rising, partial curve]

COc1ccc(N2CCN(C(=O)c3ccc(NC(=O)c4nsc5ccccc45)cc3)CC2)cc1
AC50 [1]: 0.251 µM [falling, full curve]

CCn1c(SCC(=O)N2CCCc3ccccc32)nc2ccccc2c1=O
AC50 [1]: 20 µM [falling, partial curve]

CN1C(=O)C2(Nc3ccccc3-c3nc4ccccc4n32)c2ccccc21 (configuration not stated)
AC50 [1]: 15.8 µM [falling, partial curve]

Cc1ccc(C)c(N2CCN(C(=O)c3cc4cc5ccc(C)cc5nc4s3)CC2)c1
AC50 [1]: 39.8 µM [falling, single point]

Nc1ccc(CCNc2ncnc3c2ncn3[C@@H]2O[C@@H](CO)[C@H](O)[C@@H]2O)cc1
AC50 [2]: 3.16 µM [rising, full curve, poor fit]
AC50 [3]: 2.51 µM [rising, full curve]

COc1ccc(-c2cc(OC(=O)c3ccc(F)cc3)c3c(C)oc(C)c3c(=O)c2)cc1OC
AC50 [1]: 6.31 µM [falling, single point]

Cc1ccc(Cc2c(C)nn(-c3nc(C)c(C(=O)N4CCCCC4C)s3)c2C)cc1 (configuration not stated)
AC50 [1]: 25.1 µM [falling, single point]

COc1ccc(-c2noc(CSc3nnc(-c4ccccc4)n3-c3ccc(F)cc3)n2)c(OC)c1
AC50 [1]: 39.8 µM [falling, single point]

O=C(Nc1ccc(-c2nc3ccccc3[nH]2)cc1)C1CCCO1 (configuration not stated)
AC50 [1]: 15.8 µM [falling, partial curve]

O=C(CCCc1ccccc1)N1CCc2ccccc21
AC50 [1]: 7.94 µM [falling, partial curve]

c1ccc(-c2oc3ncnc(NCCN4CCOCC4)c3c2-c2ccccc2)cc1
AC50 [2]: 31.6 µM [falling, partial curve]
AC50 [3]: 25.1 µM [falling, single point]

COC(=O)c1sccc1S(=O)(=O)N(CC(=O)NCc1ccccc1)c1ccc(C)c(C)c1
AC50 [1]: 31.6 µM [falling, single point]

CCOC(=O)c1c(C)c(-c2ccccc2)n(CC(=O)Nc2cccc(F)c2)c1C
AC50 [1]: 20 µM [falling, single point]

COc1ccc(NC(=O)CSc2nnc3scc(-c4ccc(Cl)cc4)n23)cc1
AC50 [1]: 39.8 µM [falling, single point]

COCCOc1ccc(C(F)(F)F)cc1Nc1nc2ccccc2o1
AC50 [1]: 3.16 µM [falling, partial curve]

Cc1ccc(S(=O)(=O)N(CC(=O)N2CCc3ccccc3C2)c2ccc(C)c(C)c2)cc1
AC50 [1]: 5.01 µM [falling, partial curve]

O=C(Nc1noc2ccccc12)c1c(F)cccc1F
AC50 [1]: 2 µM [rising, partial curve, poor fit]

CCOC(=O)c1ccccc1NC(=O)N1CCCN(S(=O)(=O)c2ccc3c(ccn3CC)c2)CC1
AC50 [1]: 10 µM [falling, partial curve, poor fit]

CCOc1ccc(-c2nc3c(C#N)c[nH]n3c2NC2CCCCC2)cc1
AC50 [1]: 25.1 µM [falling, single point]

O=C(Nc1cc(F)ccc1F)c1ccc2c(c1)nnn2C1CCCC1
AC50 [1]: 1.26 µM [rising, partial curve]

CCCC(=O)Nc1cc(C(=O)NCc2ccc(OC)cc2)ccc1S(=O)(=O)c1ccc(Cl)cc1
AC50 [1]: 39.8 µM [falling, single point]

Cc1cc(C)n(-c2nnc(Nc3ccc(C(C)C)cc3)c3ccccc23)n1
AC50 [1]: 39.8 µM [falling, single point]

CC(=O)c1ccc(NC(=O)C2=CC(c3cccs3)=NS(=O)(=O)N2C)cc1
AC50 [1]: 25.1 µM [falling, single point]

COc1cc(Nc2nc(SCc3cccc(Cl)c3)nc3ccccc23)cc(OC)c1
AC50 [1]: 10 µM [falling, single point]

Cc1nc2c(c(C)nn2-c2ccccc2)c(C)c1CCC(=O)Nc1ccc(F)cc1
AC50 [1]: 12.6 µM [falling, partial curve]

Cc1ccc2nc(-c3ccc(NC(=O)C(F)(F)F)cc3)sc2c1
AC50 [1]: 0.2 µM [rising, full curve]

Fc1ccc(Nc2c3c(nc4nncn24)CCC3)cc1
AC50 [1]: 6.31 µM [rising, single point]

Cc1[nH]c2ccccc2c1C(O)CN1CCN(c2cccc(C(F)(F)F)c2)CC1 (configuration not stated)
AC50 [1]: 12.6 µM [falling, partial curve]

Cc1cc(C(=O)CN2C(=O)NC3(CCCCC3)C2=O)c(C)n1Cc1ccc2c(c1)OCO2
AC50 [1]: 31.6 µM [falling, single point]

Cc1nc2nc(NC(=O)c3ccc(F)cc3)[nH]n2c(=O)c1Cc1ccccc1
AC50 [1]: 12.6 µM [falling, single point]

O=C(NCc1ccccc1F)C1CCN(Cc2cc3ccccc3n2Cc2cccc(Cl)c2)CC1
AC50 [1]: 3.98 µM [falling, full curve, poor fit]

Cc1c(C(=O)OC2CCCCC2)[nH]c2c1C(=O)CC(c1ccccc1Cl)C2 (configuration not stated)
AC50 [1]: 5.01 µM [falling, partial curve]

Cc1ccccc1NC(=O)Nc1ccc2nc(N3CCN(C)CC3)cc(C)c2c1
AC50 [1]: 10 µM [falling, partial curve, poor fit]

Cn1c(=O)oc2cc(S(=O)(=O)CCC(=O)NCCc3ccccc3)ccc21
AC50 [1]: 39.8 µM [falling, single point]

Cc1cccn2c(=O)c(/C=C(\C#N)c3nc4ccccc4s3)c(Oc3ccc(Br)cc3)nc12
AC50 [2]: 39.8 µM [rising, single point]
AC50 [3]: 1.58 µM [falling, full curve]

CCOCCc1nnc(NC(=O)C(=O)c2cc(C)n(-c3cccc(C)c3)c2C)s1
AC50 [1]: 31.6 µM [falling, single point]

Cc1ccc(-c2noc(CNC(=O)COc3cc(C)c(Br)c(C)c3)n2)cc1
AC50 [1]: 15.8 µM [falling, partial curve, poor fit]

O=C(NC1CCCCC1)c1ccc2c(c1)sc1nc(-c3ccc(F)cc3)cn12
AC50 [1]: 25.1 µM [falling, single point]

O=C(Nc1ccc2c(c1)OCCO2)NC1CCCCC1
AC50 [1]: 10 µM [falling, partial curve]

Cc1ccc(-n2nc(C(=O)N3CCN(c4ccc(F)cc4)CC3)c(=O)n(C)c2=O)cc1
AC50 [1]: 0.794 µM [falling, full curve]

OC(COc1cccc2ccccc12)CN1CCN(c2ccccn2)CC1 (configuration not stated)
AC50 [1]: 10 µM [falling, partial curve]

Cc1ccc(NC(=O)CSc2nc3ccc(Br)cc3[nH]2)c(C)c1
AC50 [1]: 25.1 µM [falling, single point]

CC1CCN(C(=O)CSc2c3c(nc4ccc(Cl)cc24)CCCC3)CC1
AC50 [1]: 12.6 µM [falling, partial curve]

CCOc1ccc(N(Cc2ccccc2)C(=O)c2nc(SCC)ncc2Cl)cc1
AC50 [1]: 15.8 µM [falling, single point]

Cc1cccc(NC(=O)CSc2nc3ccccc3nc2N2CCC(C)CC2)c1
AC50 [1]: 20 µM [falling, partial curve]

COc1ccc(S(=O)(=O)N(CC(=O)Nc2ccc(F)c(Cl)c2)c2ccc(C)cc2)cc1OC
AC50 [1]: 7.94 µM [falling, partial curve]

O=C(Nc1cccc(Cn2cccn2)c1)c1cc2c(s1)CCCC2
AC50 [2]: 39.8 µM [falling, single point]
AC50 [3]: 15.8 µM [falling, partial curve]
